From publication PMC6030054
These are yes or no findings as the source states them, for the method shown. In cells and extracts the contact can be indirect. Binding can be weak; no strength is given.

Target: T1, RXRα, endogenous mouse (mouse (endogenous in primary mouse hepatocytes)) (UniProt P28700)
T1 sequence: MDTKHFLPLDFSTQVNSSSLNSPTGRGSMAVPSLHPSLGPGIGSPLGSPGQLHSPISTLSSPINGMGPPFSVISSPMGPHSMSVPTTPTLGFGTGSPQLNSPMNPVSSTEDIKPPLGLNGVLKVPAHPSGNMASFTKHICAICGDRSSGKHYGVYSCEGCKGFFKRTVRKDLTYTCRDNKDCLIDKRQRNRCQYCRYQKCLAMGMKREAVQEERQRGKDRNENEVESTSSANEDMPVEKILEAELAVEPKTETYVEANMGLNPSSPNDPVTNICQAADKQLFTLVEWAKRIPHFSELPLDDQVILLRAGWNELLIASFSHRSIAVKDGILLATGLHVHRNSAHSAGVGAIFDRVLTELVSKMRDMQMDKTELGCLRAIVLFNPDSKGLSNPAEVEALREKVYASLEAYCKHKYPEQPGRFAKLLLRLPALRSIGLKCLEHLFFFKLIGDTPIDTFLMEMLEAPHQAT
Test: co-IP; extracts of PMH from FXR-KO mice infected with Ad-flag-FXR WT or Y67F-FXR (or transfected with siRNA for Src), treated with FGF19 for 30 min; FXR in anti-RXRα immunoprecipitates detected by IB

Substance: flag-FXR-WT (3xFlag-human FXR), adenovirally expressed in primary mouse hepatocytes
- binding: binds
